{"sequences": {"note": "Amino acid sequences for entries named in this document (tags omitted). A change or cut given only in a name is not applied to a line headed by its entry.", "UniProt P07948": "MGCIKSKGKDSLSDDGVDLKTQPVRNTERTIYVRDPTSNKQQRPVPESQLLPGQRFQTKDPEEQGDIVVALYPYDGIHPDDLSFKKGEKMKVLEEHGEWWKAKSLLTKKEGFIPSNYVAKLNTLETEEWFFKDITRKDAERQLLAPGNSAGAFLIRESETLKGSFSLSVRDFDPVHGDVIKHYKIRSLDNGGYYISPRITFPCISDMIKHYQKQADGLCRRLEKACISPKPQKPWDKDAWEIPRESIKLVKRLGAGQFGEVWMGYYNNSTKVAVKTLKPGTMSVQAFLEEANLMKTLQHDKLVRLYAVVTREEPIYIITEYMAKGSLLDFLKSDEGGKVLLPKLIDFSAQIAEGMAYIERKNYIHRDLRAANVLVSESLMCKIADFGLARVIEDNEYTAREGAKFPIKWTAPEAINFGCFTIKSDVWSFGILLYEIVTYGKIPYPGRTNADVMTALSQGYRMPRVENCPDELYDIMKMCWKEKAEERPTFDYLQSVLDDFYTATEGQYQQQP", "UniProt Q9P2G4": "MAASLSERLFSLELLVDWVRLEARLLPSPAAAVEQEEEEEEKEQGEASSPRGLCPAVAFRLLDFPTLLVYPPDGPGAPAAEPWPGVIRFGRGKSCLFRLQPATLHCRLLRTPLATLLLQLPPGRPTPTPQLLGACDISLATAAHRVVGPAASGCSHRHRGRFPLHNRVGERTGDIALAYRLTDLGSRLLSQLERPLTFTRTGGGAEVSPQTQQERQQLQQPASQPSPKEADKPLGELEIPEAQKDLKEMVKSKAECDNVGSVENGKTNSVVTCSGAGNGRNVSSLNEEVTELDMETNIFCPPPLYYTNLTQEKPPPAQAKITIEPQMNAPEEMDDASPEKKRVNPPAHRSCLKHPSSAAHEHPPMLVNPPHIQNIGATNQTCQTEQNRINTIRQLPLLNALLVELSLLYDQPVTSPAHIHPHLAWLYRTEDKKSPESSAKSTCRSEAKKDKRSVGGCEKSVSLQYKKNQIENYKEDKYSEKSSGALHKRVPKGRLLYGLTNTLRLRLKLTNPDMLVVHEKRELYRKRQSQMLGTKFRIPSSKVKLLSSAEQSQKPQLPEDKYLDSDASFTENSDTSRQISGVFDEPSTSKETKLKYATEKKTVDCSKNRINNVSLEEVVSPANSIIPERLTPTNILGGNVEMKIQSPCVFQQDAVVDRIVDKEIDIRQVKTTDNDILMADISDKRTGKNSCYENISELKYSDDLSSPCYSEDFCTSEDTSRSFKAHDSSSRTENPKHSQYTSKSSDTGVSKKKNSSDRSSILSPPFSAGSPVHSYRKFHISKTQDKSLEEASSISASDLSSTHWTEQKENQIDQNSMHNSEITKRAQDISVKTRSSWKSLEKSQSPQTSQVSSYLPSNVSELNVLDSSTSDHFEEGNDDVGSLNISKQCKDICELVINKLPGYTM", "UniProt Q3KQU3": "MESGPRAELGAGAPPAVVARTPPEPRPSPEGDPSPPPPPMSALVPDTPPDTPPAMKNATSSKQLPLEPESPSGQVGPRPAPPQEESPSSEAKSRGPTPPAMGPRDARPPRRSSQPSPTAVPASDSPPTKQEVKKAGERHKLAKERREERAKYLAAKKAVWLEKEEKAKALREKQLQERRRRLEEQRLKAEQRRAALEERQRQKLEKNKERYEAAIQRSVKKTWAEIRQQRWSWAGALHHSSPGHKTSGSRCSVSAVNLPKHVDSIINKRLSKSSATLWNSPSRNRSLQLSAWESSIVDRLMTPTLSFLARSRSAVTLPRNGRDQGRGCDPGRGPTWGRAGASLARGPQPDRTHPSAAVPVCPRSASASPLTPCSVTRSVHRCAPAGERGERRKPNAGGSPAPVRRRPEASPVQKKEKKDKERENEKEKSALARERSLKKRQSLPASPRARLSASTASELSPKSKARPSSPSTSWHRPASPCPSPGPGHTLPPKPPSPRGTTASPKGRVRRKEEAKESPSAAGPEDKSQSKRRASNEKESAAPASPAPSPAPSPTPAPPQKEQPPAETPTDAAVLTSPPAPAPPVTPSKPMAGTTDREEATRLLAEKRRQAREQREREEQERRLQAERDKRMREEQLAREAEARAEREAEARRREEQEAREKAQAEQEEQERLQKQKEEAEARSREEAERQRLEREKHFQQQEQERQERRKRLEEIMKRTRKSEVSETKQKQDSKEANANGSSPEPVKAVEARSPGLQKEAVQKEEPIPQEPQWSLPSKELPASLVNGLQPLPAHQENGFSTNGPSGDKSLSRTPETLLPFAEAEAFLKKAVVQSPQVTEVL", "UniProt P56270": "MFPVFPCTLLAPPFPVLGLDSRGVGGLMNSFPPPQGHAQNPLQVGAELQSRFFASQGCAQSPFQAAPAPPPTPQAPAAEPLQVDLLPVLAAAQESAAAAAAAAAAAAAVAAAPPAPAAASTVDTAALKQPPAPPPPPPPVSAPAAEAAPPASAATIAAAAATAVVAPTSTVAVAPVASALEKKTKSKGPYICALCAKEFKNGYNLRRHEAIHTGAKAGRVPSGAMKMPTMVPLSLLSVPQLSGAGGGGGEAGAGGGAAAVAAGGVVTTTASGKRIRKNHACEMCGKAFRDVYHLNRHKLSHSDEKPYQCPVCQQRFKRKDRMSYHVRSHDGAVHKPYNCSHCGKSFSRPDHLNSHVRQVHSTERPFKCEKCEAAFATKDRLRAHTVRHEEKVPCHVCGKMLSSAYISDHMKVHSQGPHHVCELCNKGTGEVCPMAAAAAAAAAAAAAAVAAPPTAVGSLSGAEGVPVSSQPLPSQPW", "UniProt P49641": "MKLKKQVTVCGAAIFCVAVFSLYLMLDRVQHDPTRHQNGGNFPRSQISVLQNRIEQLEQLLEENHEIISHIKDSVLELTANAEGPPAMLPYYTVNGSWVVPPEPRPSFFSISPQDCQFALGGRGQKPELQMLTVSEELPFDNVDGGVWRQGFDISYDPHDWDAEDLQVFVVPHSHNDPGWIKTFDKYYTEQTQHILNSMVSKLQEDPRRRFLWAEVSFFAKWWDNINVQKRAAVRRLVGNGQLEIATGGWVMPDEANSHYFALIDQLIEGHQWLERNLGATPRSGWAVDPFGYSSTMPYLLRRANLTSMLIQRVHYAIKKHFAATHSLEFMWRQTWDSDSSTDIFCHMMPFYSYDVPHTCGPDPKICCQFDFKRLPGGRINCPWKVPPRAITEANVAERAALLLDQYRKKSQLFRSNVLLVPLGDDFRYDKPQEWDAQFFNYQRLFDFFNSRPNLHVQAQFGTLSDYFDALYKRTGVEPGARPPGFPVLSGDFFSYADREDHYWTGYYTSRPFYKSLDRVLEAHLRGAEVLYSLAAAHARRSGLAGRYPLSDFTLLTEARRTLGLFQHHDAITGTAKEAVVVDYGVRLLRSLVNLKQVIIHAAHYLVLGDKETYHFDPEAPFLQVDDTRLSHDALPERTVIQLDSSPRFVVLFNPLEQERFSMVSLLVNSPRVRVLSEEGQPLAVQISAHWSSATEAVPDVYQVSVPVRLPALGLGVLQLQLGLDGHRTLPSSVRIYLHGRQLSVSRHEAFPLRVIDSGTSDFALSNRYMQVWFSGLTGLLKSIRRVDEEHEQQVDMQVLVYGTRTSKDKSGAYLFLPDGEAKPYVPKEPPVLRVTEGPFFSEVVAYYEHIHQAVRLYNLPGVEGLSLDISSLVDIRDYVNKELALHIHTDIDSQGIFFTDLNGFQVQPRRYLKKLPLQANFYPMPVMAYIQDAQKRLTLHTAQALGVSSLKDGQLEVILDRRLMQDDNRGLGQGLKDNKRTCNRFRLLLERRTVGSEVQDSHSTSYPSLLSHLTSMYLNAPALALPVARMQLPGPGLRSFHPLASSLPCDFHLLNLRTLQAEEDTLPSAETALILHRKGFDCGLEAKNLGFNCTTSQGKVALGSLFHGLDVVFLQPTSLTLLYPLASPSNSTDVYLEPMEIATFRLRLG", "UniProt Q9Y6D9": "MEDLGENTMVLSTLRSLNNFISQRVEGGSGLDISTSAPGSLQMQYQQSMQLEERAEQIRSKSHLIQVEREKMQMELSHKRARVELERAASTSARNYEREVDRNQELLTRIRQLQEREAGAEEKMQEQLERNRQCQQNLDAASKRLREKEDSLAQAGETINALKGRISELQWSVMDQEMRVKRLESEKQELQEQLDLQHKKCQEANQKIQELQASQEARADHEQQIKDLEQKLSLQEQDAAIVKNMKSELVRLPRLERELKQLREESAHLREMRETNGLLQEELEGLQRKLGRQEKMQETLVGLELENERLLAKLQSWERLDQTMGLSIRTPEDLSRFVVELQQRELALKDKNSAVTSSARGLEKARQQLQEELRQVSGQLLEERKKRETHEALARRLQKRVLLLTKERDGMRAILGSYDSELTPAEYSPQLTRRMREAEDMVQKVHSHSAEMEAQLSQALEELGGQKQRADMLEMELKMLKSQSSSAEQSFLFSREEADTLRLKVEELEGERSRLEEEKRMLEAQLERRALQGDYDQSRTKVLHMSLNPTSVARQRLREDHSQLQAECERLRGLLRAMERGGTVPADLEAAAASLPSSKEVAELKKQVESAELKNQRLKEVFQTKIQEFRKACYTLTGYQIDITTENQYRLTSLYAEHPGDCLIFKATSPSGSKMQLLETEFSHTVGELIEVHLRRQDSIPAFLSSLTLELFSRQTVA", "UniProt P43243": "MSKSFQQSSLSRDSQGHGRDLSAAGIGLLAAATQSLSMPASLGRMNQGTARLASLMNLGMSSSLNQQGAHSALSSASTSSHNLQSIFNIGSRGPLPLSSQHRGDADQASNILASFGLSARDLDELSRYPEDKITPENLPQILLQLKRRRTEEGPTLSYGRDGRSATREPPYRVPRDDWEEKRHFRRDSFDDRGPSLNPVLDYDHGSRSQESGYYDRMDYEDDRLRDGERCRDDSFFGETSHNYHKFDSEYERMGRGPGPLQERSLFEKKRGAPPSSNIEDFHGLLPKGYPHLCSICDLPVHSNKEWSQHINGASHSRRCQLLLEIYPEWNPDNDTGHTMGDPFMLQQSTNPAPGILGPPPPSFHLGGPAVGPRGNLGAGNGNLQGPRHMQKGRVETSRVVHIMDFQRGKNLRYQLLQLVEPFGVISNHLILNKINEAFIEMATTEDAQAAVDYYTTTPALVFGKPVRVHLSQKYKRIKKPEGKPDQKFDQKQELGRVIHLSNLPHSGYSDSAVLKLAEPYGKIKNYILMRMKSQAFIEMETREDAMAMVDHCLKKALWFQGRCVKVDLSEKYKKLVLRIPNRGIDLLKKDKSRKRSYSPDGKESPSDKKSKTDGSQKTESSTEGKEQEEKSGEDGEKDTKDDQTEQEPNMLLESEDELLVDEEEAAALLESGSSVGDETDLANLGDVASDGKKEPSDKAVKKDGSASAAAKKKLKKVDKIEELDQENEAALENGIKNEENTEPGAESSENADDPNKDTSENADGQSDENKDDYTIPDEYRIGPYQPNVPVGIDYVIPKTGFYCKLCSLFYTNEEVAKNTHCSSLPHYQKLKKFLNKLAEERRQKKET", "UniProt Q8IV50": "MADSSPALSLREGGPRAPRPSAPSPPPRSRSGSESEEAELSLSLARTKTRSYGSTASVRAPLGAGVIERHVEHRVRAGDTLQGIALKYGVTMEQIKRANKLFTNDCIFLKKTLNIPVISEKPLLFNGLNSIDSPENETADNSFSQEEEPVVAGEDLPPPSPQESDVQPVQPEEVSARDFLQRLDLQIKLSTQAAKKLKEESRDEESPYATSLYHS", "UniProt Q9UBB5, whole entry, looked up": "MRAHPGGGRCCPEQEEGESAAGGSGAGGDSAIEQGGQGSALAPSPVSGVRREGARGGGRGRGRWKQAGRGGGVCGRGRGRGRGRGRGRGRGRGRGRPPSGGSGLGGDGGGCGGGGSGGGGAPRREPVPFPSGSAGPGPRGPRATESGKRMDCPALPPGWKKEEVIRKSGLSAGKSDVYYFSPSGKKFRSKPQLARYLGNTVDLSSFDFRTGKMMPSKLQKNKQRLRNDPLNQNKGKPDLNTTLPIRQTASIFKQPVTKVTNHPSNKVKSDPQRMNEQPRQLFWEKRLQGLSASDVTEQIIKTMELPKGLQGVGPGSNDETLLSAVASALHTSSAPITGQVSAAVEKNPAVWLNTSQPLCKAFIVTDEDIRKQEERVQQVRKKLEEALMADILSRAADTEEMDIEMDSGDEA", "UniProt Q5U5X0": "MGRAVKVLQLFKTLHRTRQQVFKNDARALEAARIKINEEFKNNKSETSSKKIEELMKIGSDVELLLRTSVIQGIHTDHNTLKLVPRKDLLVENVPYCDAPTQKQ"}, "source": "the supplement of paper PMC12067093", "about": "“Discovery and optimisation of a covalent ligand for TRIM25 and its application to targeted protein ubiquitination” (Chemical Science, 2025)", "note": "This is one part of the list.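 Also: competitive chemoproteomic profiling in live THP-1 cells with an iodoacetamide desthiobiotin (IA-DTB) probe, comparing probe-labelled peptide intensities in compound-treated cells against DMSO-treated controls.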", "data": [{"compound": "CC1Cc2ccccc2N1C(=O)C1CCCN(C1)C(=O)CCl (mixture of isomers) [TRIM25 ligand 11 (diastereomer mixture)]", "experiment": "probe-labelled cysteine peptide fold change vs DMSO (competition) (log2 fold change); higher = less target engagement (more negative = stronger competition)", "conditions": "10 µM; THP-1; incubation time: 4 h", "values": [{"target": "MACF1_Q9UPN3_5188_LDIEASEAECR (UniProt Q9UPN3)", "probe-labelled cysteine peptide fold change": -0.0129}, {"target": "LYN_P07948_226_ACISPK (UniProt P07948)", "probe-labelled cysteine peptide fold change": 0.0436}, {"target": "LY75_O60449_1380_VIEEAVYFHQHSILACK (UniProt O60449)", "probe-labelled cysteine peptide fold change": 0.366}, {"target": "LYST_Q99698_2168_GKEDAFISSCESAK (UniProt Q99698)", "probe-labelled cysteine peptide fold change": 0.00283}, {"target": "MAP10_Q9P2G4_256_AECDNVGSVENGK (UniProt Q9P2G4)", "probe-labelled cysteine peptide fold change": 0.0362}, {"target": "MAP7D1_Q3KQU3-4_329_DQAVPVCPR (UniProt Q3KQU3)", "probe-labelled cysteine peptide fold change": -0.0498}, {"target": "MAPRE2_Q15555_279_EIELLCQEHGQENDDLVQR (UniProt Q15555)", "probe-labelled cysteine peptide fold change": -0.0442}, {"target": "MAZ_P56270_371_CEAAFATK (UniProt P56270)", "probe-labelled cysteine peptide fold change": 0.0417}, {"target": "MAN2A2_P49641_382_INCPWK (UniProt P49641)", "probe-labelled cysteine peptide fold change": 0.0131}, {"target": "LY75_O60449_922_TWLIDLGKPTDCSTK (UniProt O60449)", "probe-labelled cysteine peptide fold change": 0.0303}, {"target": "LY75_O60449_501_MCPPDEGWKR (UniProt O60449)", "probe-labelled cysteine peptide fold change": -0.164}, {"target": "MACF1_Q9UPN3_666_LETQYCK (UniProt Q9UPN3)", "probe-labelled cysteine peptide fold change": -0.0496}, {"target": "LYPLA1_O75608_173_DISILQCHGDCDPLVPLMFGSLTVEK (UniProt O75608)", "probe-labelled cysteine peptide fold change": -0.358}, {"target": "LY75_O60449_1089_HFVSLCQK (UniProt O60449)", "probe-labelled cysteine peptide fold change": 0.118}, {"target": "MAD1L1_Q9Y6D9_662_LTSLYAEHPGDCLIFK (UniProt Q9Y6D9)", "probe-labelled cysteine peptide fold change": 0.00589}, {"target": "MATR3_P43243_230_CRDDSFFGETSHNYHK (UniProt P43243)", "probe-labelled cysteine peptide fold change": 0.0188}, {"target": "MAPRE2_Q15555_279_LREIELLCQEHGQENDDLVQR (UniProt Q15555)", "probe-labelled cysteine peptide fold change": 0.00852}, {"target": "LYSMD2_Q8IV50_106_LFTNDCIFLK (UniProt Q8IV50)", "probe-labelled cysteine peptide fold change": -0.322}, {"target": "LUC7L_Q9NQ29_44_SHLLDCCPHDILAGTR (UniProt Q9NQ29)", "probe-labelled cysteine peptide fold change": -0.0733}, {"target": "MAPK14_Q16539_39_YQNLSPVGSGAYGSVCAAFDTK (UniProt Q16539)", "probe-labelled cysteine peptide fold change": -0.107}, {"target": "MAP1S_Q66K74_435_VLFPGCTPPACLLDGLVR (UniProt Q66K74)", "probe-labelled cysteine peptide fold change": 0.191}, {"target": "MAP2K2_P36507_384_RSEVEEVDFAGWLCK (UniProt P36507)", "probe-labelled cysteine peptide fold change": -0.135}, {"target": "LTA4H_P09960_136+141_EHPYLFSQCQAIHCR (UniProt P09960)", "probe-labelled cysteine peptide fold change": 0.159}, {"target": "MBD2_Q9UBB5_152_MDCPALPPGWK (UniProt Q9UBB5)", "probe-labelled cysteine peptide fold change": -0.164}]}, {"compound": "CC1Cc2ccccc2N1C(=O)C1CCCN(C1)C(=O)CCl (mixture of isomers) [TRIM25 ligand 11 (diastereomer mixture)]", "experiment": "probe-labelled cysteine peptide fold change vs DMSO (competition) (log2 fold change); higher = less target engagement (more negative = stronger competition)", "conditions": "50 µM; THP-1; incubation time: 4 h", "values": [{"target": "MAP4K4_O95819_269_FFSFIEGCLVK (UniProt O95819)", "probe-labelled cysteine peptide fold change": 0.111}, {"target": "MAP3K2_Q9Y2U5_512_LQTICLSGTGMK (UniProt Q9Y2U5)", "probe-labelled cysteine peptide fold change": -0.0579}, {"target": "MACF1_Q9UPN3_5346_IAQLQEALLHCGK (UniProt Q9UPN3)", "probe-labelled cysteine peptide fold change": 0.000666}, {"target": "MAN2B2_Q9Y2E5_288_TPHVLWPWGCDK (UniProt Q9Y2E5)", "probe-labelled cysteine peptide fold change": 0.0207}, {"target": "MACF1_Q9UPN3_4206_FEQLCLQQQEK (UniProt Q9UPN3)", "probe-labelled cysteine peptide fold change": -0.00967}, {"target": "MAPK9_P45984_222_GCVIFQGTDHIDQWNK (UniProt P45984)", "probe-labelled cysteine peptide fold change": -0.063}, {"target": "MAVS_Q7Z434_33_NFSNFCNVDVVEILPYLPCLTAR (UniProt Q7Z434)", "probe-labelled cysteine peptide fold change": 0.343}, {"target": "LTA4H_P09960_26_CSVDFTR (UniProt P09960)", "probe-labelled cysteine peptide fold change": -0.00265}, {"target": "MAP4K2_Q12851_473_VHMGACFSK (UniProt Q12851)", "probe-labelled cysteine peptide fold change": 0.0802}, {"target": "MAPK7_Q13164_359_YHDPDDEPDCAPPFDFAFDREALTR (UniProt Q13164)", "probe-labelled cysteine peptide fold change": -0.118}, {"target": "LYAR_Q9NX58_6_VFFTCNACGESVK (UniProt Q9NX58)", "probe-labelled cysteine peptide fold change": -0.0338}, {"target": "LYPLAL1_Q5VWZ2_174_SNGVLPELFQCHGTADELVLHSWAEETNSMLK (UniProt Q5VWZ2)", "probe-labelled cysteine peptide fold change": 0.156}, {"target": "MARS2_Q96GW9_336_ICVHSHWTVCGQK (UniProt Q96GW9)", "probe-labelled cysteine peptide fold change": -0.0522}, {"target": "MAT2A_P31153_104_TCNVLVALEQQSPDIAQGVHLDR (UniProt P31153)", "probe-labelled cysteine peptide fold change": 0.0806}, {"target": "LTA4H_P09960_147_AILPCQDTPSVK (UniProt P09960)", "probe-labelled cysteine peptide fold change": -0.0947}, {"target": "LYRM7_Q5U5X0_97_DLLVENVPYCDAPTQK (UniProt Q5U5X0)", "probe-labelled cysteine peptide fold change": 0.0601}, {"target": "MACF1_Q9UPN3_5188_LDIEASEAECR (UniProt Q9UPN3)", "probe-labelled cysteine peptide fold change": 0.0708}, {"target": "LYN_P07948_226_ACISPK (UniProt P07948)", "probe-labelled cysteine peptide fold change": 0.2}, {"target": "LY75_O60449_1380_VIEEAVYFHQHSILACK (UniProt O60449)", "probe-labelled cysteine peptide fold change": 0.443}, {"target": "LYST_Q99698_2168_GKEDAFISSCESAK (UniProt Q99698)", "probe-labelled cysteine peptide fold change": -0.394}, {"target": "MAP10_Q9P2G4_256_AECDNVGSVENGK (UniProt Q9P2G4)", "probe-labelled cysteine peptide fold change": -0.143}, {"target": "MAP7D1_Q3KQU3-4_329_DQAVPVCPR (UniProt Q3KQU3)", "probe-labelled cysteine peptide fold change": -0.245}, {"target": "MAPRE2_Q15555_279_EIELLCQEHGQENDDLVQR (UniProt Q15555)", "probe-labelled cysteine peptide fold change": -0.23}, {"target": "MAZ_P56270_371_CEAAFATK (UniProt P56270)", "probe-labelled cysteine peptide fold change": 0.237}, {"target": "MAN2A2_P49641_382_INCPWK (UniProt P49641)", "probe-labelled cysteine peptide fold change": 0.063}, {"target": "LY75_O60449_922_TWLIDLGKPTDCSTK (UniProt O60449)", "probe-labelled cysteine peptide fold change": 0.0536}, {"target": "LY75_O60449_501_MCPPDEGWKR (UniProt O60449)", "probe-labelled cysteine peptide fold change": -0.0884}, {"target": "MACF1_Q9UPN3_666_LETQYCK (UniProt Q9UPN3)", "probe-labelled cysteine peptide fold change": -0.158}, {"target": "LYPLA1_O75608_173_DISILQCHGDCDPLVPLMFGSLTVEK (UniProt O75608)", "probe-labelled cysteine peptide fold change": 0.0477}, {"target": "LY75_O60449_1089_HFVSLCQK (UniProt O60449)", "probe-labelled cysteine peptide fold change": 0.16}, {"target": "MAD1L1_Q9Y6D9_662_LTSLYAEHPGDCLIFK (UniProt Q9Y6D9)", "probe-labelled cysteine peptide fold change": -0.0309}, {"target": "MATR3_P43243_230_CRDDSFFGETSHNYHK (UniProt P43243)", "probe-labelled cysteine peptide fold change": -0.0509}, {"target": "MAPRE2_Q15555_279_LREIELLCQEHGQENDDLVQR (UniProt Q15555)", "probe-labelled cysteine peptide fold change": -0.0148}, {"target": "LYSMD2_Q8IV50_106_LFTNDCIFLK (UniProt Q8IV50)", "probe-labelled cysteine peptide fold change": -0.19}, {"target": "LUC7L_Q9NQ29_44_SHLLDCCPHDILAGTR (UniProt Q9NQ29)", "probe-labelled cysteine peptide fold change": -0.0524}, {"target": "MAPK14_Q16539_39_YQNLSPVGSGAYGSVCAAFDTK (UniProt Q16539)", "probe-labelled cysteine peptide fold change": -0.0256}, {"target": "MAP1S_Q66K74_435_VLFPGCTPPACLLDGLVR (UniProt Q66K74)", "probe-labelled cysteine peptide fold change": 0.311}, {"target": "MAP2K2_P36507_384_RSEVEEVDFAGWLCK (UniProt P36507)", "probe-labelled cysteine peptide fold change": -0.214}, {"target": "LTA4H_P09960_136+141_EHPYLFSQCQAIHCR (UniProt P09960)", "probe-labelled cysteine peptide fold change": -0.0225}, {"target": "MBD2_Q9UBB5_152_MDCPALPPGWK (UniProt Q9UBB5)", "probe-labelled cysteine peptide fold change": -0.00934}]}]}
